# From the supplement of paper PMC8728848
# The list shows a part of the results.
# Columns and labels:
# Assay in all cases: glycan array binding signal (z-score within array); higher = stronger binding
# Conditions in all cases: glycan notation: IUPAC condensed, linker removed
# [1] = biological target: GlcNAc(b1-3)Gal(b1-4)GlcNAc(b1-3)Gal(b1-4)GlcNAc(b1-3)GalNAc
# In short: (§1)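 The binding signal is a Z-score computed within each array and averaged over linkers. Arrays of the same protein sequence at different concentrations or buffers were also averaged together. Data originate from 3228 arrays in the Consortium for Functional Glycomics database, kept only where the protein sequence was available.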
# [2] = biological target: GlcNAc(b1-3)Gal(b1-4)GlcNAc(b1-3)GalNAc
# In short: as §1
# [3] = biological target: GlcNAc(b1-3)Gal(b1-4)GlcNAc(b1-3)[GlcNAc(b1-3)Gal(b1-4)GlcNAc(b1-3)]GalNAc
# In short: as §1
# [4] = biological target: GlcNAc(b1-3)Gal(b1-4)GlcNAc(b1-6)[Gal(b1-3)]GalNAc
# In short: as §1
# [5] = biological target: GlcNAc(b1-3)Gal(b1-4)GlcNAc(b1-6)[GlcNAc(b1-3)Gal(b1-3)]GalNAc
# In short: as §1
# [6] = biological target: GlcNAc(b1-3)Gal(b1-4)GlcNAc(b1-6)[GlcNAc(b1-3)]Gal(b1-4)GlcNAc
# In short: as §1
# GlcNAc(b1-3)GalNAc = biological target: GlcNAc(b1-3)GalNAc
# In short: as §1
# GlcNAc(b1-3)Man = biological target: GlcNAc(b1-3)Man
# In short: as §1
# [7] = biological target: GlcNAc(b1-3)[GlcNAc(b1-4)][GlcNAc(b1-6)]GlcNAc
# In short: as §1
# [8] = biological target: GlcNAc(b1-3)[GlcNAc(b1-6)]Gal(b1-4)GlcNAc
# In short: as §1
# [9] = biological target: GlcNAc(b1-3)[GlcNAc(b1-6)]GalNAc
# In short: as §1
# [10] = biological target: GlcNAc(b1-4)Gal(b1-4)GlcNAc
# In short: as §1
# GlcNAc(b1-4)GlcNAc = biological target: GlcNAc(b1-4)GlcNAc
# In short: as §1
# [11] = biological target: GlcNAc(b1-4)GlcNAc(b1-4)GlcNAc
# In short: as §1
# [12] = biological target: GlcNAc(b1-4)GlcNAc(b1-4)GlcNAc(b1-4)GlcNAc(b1-4)GlcNAc
# In short: as §1
# [13] = biological target: GlcNAc(b1-4)GlcNAc(b1-4)GlcNAc(b1-4)GlcNAc(b1-4)GlcNAc(b1-4)GlcNAc
# In short: as §1
# [14] = biological target: GlcNAc(b1-4)[GlcNAc(b1-6)]GalNAc
# In short: as §1
# [15] = biological target: GlcNAc(b1-6)Gal(b1-4)GlcNAc
# In short: as §1
# GlcNAc(b1-6)GalNAc = biological target: GlcNAc(b1-6)GalNAc
# In short: as §1
# [16] = biological target: GlcNAc6S(b1-3)Gal(b1-4)GlcNAc
# In short: as §1
# Kdn(a2-3)Gal(b1-3)GalNAc = biological target: Kdn(a2-3)Gal(b1-3)GalNAc
# In short: as §1
# Kdn(a2-3)Gal(b1-3)GlcNAc = biological target: Kdn(a2-3)Gal(b1-3)GlcNAc
# In short: as §1
# Kdn(a2-3)Gal(b1-4)Glc = biological target: Kdn(a2-3)Gal(b1-4)Glc
# In short: as §1
# Kdn(a2-3)Gal(b1-4)GlcNAc = biological target: Kdn(a2-3)Gal(b1-4)GlcNAc
# In short: as §1
# [17] = biological target: Kdn(a2-3)Gal(b1-4)[Fuc(a1-3)]GlcNAc
# In short: as §1
# Kdn(a2-6)Gal(b1-4)GlcNAc = biological target: Kdn(a2-6)Gal(b1-4)GlcNAc
# In short: as §1
# [18] = biological target: Man(a1-2)Man(a1-2)Man(a1-3)Man
# In short: as §1
# [19] = biological target: Man(a1-2)Man(a1-2)Man(a1-6)[Man(a1-3)]Man
# In short: as §1
# Man(a1-2)Man(a1-3)Man = biological target: Man(a1-2)Man(a1-3)Man
# In short: as §1
# [20] = biological target: Man(a1-2)Man(a1-3)[Man(a1-2)Man(a1-6)]Man
# In short: as §1
# [21] = biological target: Man(a1-2)Man(a1-3)[Man(a1-2)Man(a1-6)]Man(a1-6)[Man(a1-2)Man(a1-2)Man(a1-3)]Man
# In short: as §1
# [22] = biological target: Man(a1-2)Man(a1-3)[Man(a1-2)Man(a1-6)]Man(a1-6)[Man(a1-2)Man(a1-2)Man(a1-3)]Man(b1-4)GlcNAc(b1-4)GlcNAc
# In short: as §1
# [23] = biological target: Man(a1-2)Man(a1-3)[Man(a1-6)]Man(a1-6)[Man(a1-2)Man(a1-3)]Man(b1-4)GlcNAc(b1-4)GlcNAc
# In short: as §1
# [24] = biological target: Man(a1-2)Man(a1-6)[Man(a1-3)]Man(a1-6)[Man(a1-2)Man(a1-2)Man(a1-3)]Man
# In short: as §1
# [25] = biological target: Man(a1-2)Man(a1-6)[Man(a1-3)]Man(a1-6)[Man(a1-2)Man(a1-2)Man(a1-3)]Man(b1-4)GlcNAc(b1-4)GlcNAc
# In short: as §1
# Man(a1-3)[Man(a1-6)]Man = biological target: Man(a1-3)[Man(a1-6)]Man
# In short: as §1
# [26] = biological target: Man(a1-3)[Man(a1-6)]Man(a1-6)[Man(a1-2)Man(a1-3)]Man(b1-4)GlcNAc(b1-4)GlcNAc
# In short: as §1
binder,measurement,setting,value
Clec39 (Caenorhabditis elegans) (protein) MTSFYDNSSSSSKPVPLKTSRAQKIQILIFDNWKLILYGAISTLILVLAIMFSTLFFALPAANCDENSEPTKYYTTNAEITTTITTTNQKTTSTASSHLTTISSSATQIYSESSSSSTSQSTFTQSPPEISTTTIAPSDFSCQHGFTLVNNKCWKLVTSNQARPDADKICNGYGGATLFSIKSEQDNRAMIHFVKGQDIDFLWSGLLCSAGEPISCIWDIENGSTANYSNFADGFPNIVYGNCVYFITSGDEAGQWGNEQCGQVMNFVCELPATFQGKDGCKNNYEKSCYLRFDLNLTVPQAQNFCLEKCANLVSIHSANEVRFIMTIYDFIGEILIGALAPAQDFIYWLDGTPANYNNLKFFYNSTCVHMTVAPGMQNVGKWFTRFCTETGKFLCKRSIKNSCT,glycan array binding signal (z-score),[1],-1.23
same,glycan array binding signal (z-score),[2],1.08
same,glycan array binding signal (z-score),[3],-0.004
same,glycan array binding signal (z-score),[4],-1.24
same,glycan array binding signal (z-score),[5],0.339
same,glycan array binding signal (z-score),[6],1.44
same,glycan array binding signal (z-score),GlcNAc(b1-3)GalNAc,0.454
same,glycan array binding signal (z-score),GlcNAc(b1-3)Man,-0.997
same,glycan array binding signal (z-score),[7],0.102
same,glycan array binding signal (z-score),[8],0.081
same,glycan array binding signal (z-score),[9],0.615
same,glycan array binding signal (z-score),[10],-0.539
same,glycan array binding signal (z-score),GlcNAc(b1-4)GlcNAc,0.264
same,glycan array binding signal (z-score),[11],-0.088
same,glycan array binding signal (z-score),[12],-0.353
same,glycan array binding signal (z-score),[13],-0.864
same,glycan array binding signal (z-score),[14],0.517
same,glycan array binding signal (z-score),[15],0.316
same,glycan array binding signal (z-score),GlcNAc(b1-6)GalNAc,-0.555
same,glycan array binding signal (z-score),[16],-1.16
same,glycan array binding signal (z-score),Kdn(a2-3)Gal(b1-3)GalNAc,0.326
same,glycan array binding signal (z-score),Kdn(a2-3)Gal(b1-3)GlcNAc,-0.241
same,glycan array binding signal (z-score),Kdn(a2-3)Gal(b1-4)Glc,0.281
same,glycan array binding signal (z-score),Kdn(a2-3)Gal(b1-4)GlcNAc,-0.512
same,glycan array binding signal (z-score),[17],0.741
same,glycan array binding signal (z-score),Kdn(a2-6)Gal(b1-4)GlcNAc,0.204
same,glycan array binding signal (z-score),[18],-0.46
same,glycan array binding signal (z-score),[19],-0.763
same,glycan array binding signal (z-score),Man(a1-2)Man(a1-3)Man,-0.37
same,glycan array binding signal (z-score),[20],-0.005
same,glycan array binding signal (z-score),[21],0.088
same,glycan array binding signal (z-score),[22],-0.047
same,glycan array binding signal (z-score),[23],0.209
same,glycan array binding signal (z-score),[24],-1.2
same,glycan array binding signal (z-score),[25],0.7
same,glycan array binding signal (z-score),Man(a1-3)[Man(a1-6)]Man,0.047
same,glycan array binding signal (z-score),[26],-1.01

# Retrieved one by one from the entries so far, 2 records:
binder,measurement,setting,value
Clec39 (Caenorhabditis elegans) (protein) MTSFYDNSSSSSKPVPLKTSRAQKIQILIFDNWKLILYGAISTLILVLAIMFSTLFFALPAANCDENSEPTKYYTTNAEITTTITTTNQKTTSTASSHLTTISSSATQIYSESSSSSTSQSTFTQSPPEISTTTIAPSDFSCQHGFTLVNNKCWKLVTSNQARPDADKICNGYGGATLFSIKSEQDNRAMIHFVKGQDIDFLWSGLLCSAGEPISCIWDIENGSTANYSNFADGFPNIVYGNCVYFITSGDEAGQWGNEQCGQVMNFVCELPATFQGKDGCKNNYEKSCYLRFDLNLTVPQAQNFCLEKCANLVSIHSANEVRFIMTIYDFIGEILIGALAPAQDFIYWLDGTPANYNNLKFFYNSTCVHMTVAPGMQNVGKWFTRFCTETGKFLCKRSIKNSCT,glycan array binding signal (z-score),[18],-0.46
same,glycan array binding signal (z-score),[14],0.517
